Reference: publication PMC12930380, “Overcoming Ligand Discovery Challenges: Developing Peptide-Based Tracers for SPSB2” (ACS Chemical Biology, 2025)
No constants are given. Whether binding was seen depends on the method and setting. In cells and extracts the contact can be indirect. Some binding calls cover weakened binding; strength is not graded here. Where a sequence is shown, tags or fusion partners need not be part of it.

Experiments:
[1] = molecular target: T1, C-terminally Nanoluc-tagged human full length SPSB2 (human) (UniProt Q99619); test: FRET or BRET; NanoBRET displacement; 6 nM to 50 μM cyclic TAT peptide against 20 nM (repeats also 30 nM) cyclic TAT tracer in intact HCT116 cells transfected with SPSB2-NanoLuc; only the binder purified
T1 sequence: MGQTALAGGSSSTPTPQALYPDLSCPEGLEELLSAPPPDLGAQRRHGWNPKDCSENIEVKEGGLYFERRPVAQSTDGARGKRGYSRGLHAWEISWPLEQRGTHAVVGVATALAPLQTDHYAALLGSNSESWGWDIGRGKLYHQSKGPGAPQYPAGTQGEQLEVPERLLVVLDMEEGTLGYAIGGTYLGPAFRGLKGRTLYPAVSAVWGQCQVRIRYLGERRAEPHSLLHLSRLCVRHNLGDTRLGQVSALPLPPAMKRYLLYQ

[2] = molecular target: T1, C-terminally Nanoluc-tagged human full length SPSB2 (human); test: FRET or BRET; NanoBRET displacement; 6 nM to 50 μM cyclic TAT peptide against 20 nM (repeats also 30 nM) cyclic TAT tracer in HCT116 cells transfected with SPSB2-NanoLuc and permeabilized with 25 μM digitonin; only the binder purified

CYGRKKRRQRRRCGSGVDINNN (PEG4 on the N-terminus; disulfide bridge flanking the TAT sequence) [cyclic TAT peptide]
binding [1]: binds
binding [2]: binds
